# Screening data, single-dose tests

Amino acid sequences for entries named in this document (tags omitted). Residues count along the entry.
UniProt Q4DA54, 1-478: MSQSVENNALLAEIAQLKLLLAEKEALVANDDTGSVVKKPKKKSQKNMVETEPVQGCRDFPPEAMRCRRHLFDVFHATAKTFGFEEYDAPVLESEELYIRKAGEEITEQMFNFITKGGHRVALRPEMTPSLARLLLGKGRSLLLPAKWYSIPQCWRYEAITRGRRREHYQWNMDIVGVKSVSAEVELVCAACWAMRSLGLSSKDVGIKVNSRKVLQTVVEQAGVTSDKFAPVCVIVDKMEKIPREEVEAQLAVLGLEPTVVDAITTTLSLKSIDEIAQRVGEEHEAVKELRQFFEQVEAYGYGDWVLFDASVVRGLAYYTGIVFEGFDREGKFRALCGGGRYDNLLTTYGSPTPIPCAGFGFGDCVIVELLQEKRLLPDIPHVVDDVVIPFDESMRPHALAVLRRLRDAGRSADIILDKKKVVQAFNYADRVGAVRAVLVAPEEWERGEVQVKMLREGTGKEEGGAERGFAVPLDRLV
UniProt I6X8D2, whole entry: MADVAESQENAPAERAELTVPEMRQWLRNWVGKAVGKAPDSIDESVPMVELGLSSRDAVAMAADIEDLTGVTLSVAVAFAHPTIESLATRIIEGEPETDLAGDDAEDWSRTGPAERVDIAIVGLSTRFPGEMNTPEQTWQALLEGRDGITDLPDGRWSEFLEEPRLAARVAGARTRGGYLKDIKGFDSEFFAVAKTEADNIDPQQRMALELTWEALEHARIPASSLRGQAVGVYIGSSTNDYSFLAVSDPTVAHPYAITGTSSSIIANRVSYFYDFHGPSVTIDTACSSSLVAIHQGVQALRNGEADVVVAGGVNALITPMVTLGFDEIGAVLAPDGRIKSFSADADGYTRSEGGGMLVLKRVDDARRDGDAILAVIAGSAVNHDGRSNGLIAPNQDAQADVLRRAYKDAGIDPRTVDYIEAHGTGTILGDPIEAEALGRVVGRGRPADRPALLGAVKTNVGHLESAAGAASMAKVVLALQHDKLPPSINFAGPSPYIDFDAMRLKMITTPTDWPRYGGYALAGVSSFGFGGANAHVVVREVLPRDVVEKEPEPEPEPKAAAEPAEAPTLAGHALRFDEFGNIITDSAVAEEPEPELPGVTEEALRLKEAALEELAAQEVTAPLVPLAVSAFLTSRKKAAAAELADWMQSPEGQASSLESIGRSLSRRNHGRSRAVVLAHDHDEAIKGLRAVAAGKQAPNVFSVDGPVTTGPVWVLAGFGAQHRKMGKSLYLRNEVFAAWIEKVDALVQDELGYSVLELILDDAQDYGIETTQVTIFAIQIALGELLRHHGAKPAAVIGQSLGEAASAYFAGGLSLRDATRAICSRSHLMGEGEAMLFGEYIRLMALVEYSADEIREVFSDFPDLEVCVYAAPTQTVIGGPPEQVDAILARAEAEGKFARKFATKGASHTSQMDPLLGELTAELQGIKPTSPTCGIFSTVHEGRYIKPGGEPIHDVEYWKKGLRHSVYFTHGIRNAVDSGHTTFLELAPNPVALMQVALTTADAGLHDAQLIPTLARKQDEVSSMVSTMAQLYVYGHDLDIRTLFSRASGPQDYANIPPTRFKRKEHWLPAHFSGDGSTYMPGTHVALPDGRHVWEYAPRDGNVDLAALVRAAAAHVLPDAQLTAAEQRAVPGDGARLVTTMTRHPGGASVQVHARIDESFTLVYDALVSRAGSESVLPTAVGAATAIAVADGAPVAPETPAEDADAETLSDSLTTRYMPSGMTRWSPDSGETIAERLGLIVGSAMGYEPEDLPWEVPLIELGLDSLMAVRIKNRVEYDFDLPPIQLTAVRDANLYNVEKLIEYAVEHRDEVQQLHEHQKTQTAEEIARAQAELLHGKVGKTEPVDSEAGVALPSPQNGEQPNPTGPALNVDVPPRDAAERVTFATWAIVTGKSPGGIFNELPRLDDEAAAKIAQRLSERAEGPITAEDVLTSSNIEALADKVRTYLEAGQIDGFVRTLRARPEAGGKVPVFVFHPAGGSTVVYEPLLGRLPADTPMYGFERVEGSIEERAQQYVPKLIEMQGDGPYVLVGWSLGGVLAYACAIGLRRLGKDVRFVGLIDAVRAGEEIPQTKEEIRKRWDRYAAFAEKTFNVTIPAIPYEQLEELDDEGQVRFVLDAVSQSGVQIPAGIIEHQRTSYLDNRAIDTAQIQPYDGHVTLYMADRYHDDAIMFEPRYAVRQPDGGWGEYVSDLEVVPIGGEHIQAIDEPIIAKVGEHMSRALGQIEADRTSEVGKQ
UniProt P9WNZ1, whole entry: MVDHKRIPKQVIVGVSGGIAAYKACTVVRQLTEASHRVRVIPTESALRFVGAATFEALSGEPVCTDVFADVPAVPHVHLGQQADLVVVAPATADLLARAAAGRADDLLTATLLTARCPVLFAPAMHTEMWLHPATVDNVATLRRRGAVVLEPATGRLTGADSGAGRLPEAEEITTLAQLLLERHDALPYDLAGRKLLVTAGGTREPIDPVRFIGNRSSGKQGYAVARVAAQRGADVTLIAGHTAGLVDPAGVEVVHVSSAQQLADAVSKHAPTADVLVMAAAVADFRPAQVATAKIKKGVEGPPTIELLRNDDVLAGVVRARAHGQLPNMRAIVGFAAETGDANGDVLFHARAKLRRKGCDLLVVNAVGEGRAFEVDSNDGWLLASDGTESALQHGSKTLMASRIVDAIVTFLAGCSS
UniProt Q8IDJ8, 1-583: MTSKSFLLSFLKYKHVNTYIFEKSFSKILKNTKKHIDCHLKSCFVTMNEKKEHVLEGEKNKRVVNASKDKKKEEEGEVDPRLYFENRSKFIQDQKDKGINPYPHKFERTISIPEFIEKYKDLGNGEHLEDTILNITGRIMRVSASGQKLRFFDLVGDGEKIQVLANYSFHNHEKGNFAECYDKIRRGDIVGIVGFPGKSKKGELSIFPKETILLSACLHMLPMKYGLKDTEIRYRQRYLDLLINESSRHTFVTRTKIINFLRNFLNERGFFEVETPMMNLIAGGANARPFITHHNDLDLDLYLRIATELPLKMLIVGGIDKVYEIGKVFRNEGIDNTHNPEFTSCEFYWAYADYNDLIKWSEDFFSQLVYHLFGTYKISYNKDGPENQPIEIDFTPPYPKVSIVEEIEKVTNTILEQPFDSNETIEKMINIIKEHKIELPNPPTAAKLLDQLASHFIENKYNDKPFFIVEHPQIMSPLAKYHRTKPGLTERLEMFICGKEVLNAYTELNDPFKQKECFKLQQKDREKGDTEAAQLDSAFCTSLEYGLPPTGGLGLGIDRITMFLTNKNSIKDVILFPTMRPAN
UniProt P9WFT3, whole entry: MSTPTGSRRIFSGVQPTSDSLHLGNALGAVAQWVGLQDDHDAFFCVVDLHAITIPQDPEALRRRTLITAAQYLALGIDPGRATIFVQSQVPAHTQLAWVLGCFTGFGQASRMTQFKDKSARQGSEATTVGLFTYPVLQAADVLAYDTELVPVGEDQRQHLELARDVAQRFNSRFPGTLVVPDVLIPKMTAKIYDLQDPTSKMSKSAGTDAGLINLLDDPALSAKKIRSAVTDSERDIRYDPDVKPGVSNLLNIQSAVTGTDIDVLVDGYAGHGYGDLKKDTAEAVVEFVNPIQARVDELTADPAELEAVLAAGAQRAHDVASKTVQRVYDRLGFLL

Source: ChEMBL document CHEMBL3988442, “University of Dundee, Small-Polar-MMV Screening Library” (2021).

TcHisRS: 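Histidine-tRNA ligase, Trypanosoma cruzi CL Brener (UniProt Q4DA54). Enzyme assay of histidyl-tRNA synthetase; the read-out is not stated. Compounds at 30 µM. The record gives no direction; compounds that gave an IC50 in retests scored well above the rest, so higher reads as stronger inhibition. About 69,000 compounds were tested under these conditions; 0.045% (about 31) showed 50% or more at least once.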
Pks13 thioesterase: 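Enzyme assay of the thioesterase domain of polyketide synthase 13; the read-out is not stated. Target: Polyketide synthase Pks13, Mycobacterium tuberculosis (UniProt I6X8D2). Compounds at 30 µM. The record gives no direction; the compounds picked for IC50 retests had high values, so higher reads as stronger inhibition. Of about 67,000 compounds tested this way, about 300 (0.46%) reached 50% or more in at least one test.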
CoaBC: 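Coenzyme A biosynthesis protein CoaBC, Mycobacterium tuberculosis (UniProt P9WNZ1). Enzyme assay of CoaBC with a phosphate dye (Biomol Green) read at 650 nm. Compounds at 30 µM. Direction is inferred from only a few compounds that gave an IC50; most scored high, so higher reads as stronger inhibition. Most strong results did not repeat in a second test. Of about 67,000 compounds tested this way, about 40 (0.06%) reached 50% or more in at least one test.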
Leishmania in macrophages: 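Cell assay of Leishmania donovani living inside macrophages; the read-out is not stated. Compounds at 30 µM. Higher reads as stronger inhibition (inferred: compounds with an IC50 in retests scored well above the rest). About 69,000 compounds were tested under these conditions; 1.5% (about 1,000) showed 50% or more at least once.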
PfKRS1: 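Lysine-tRNA ligase, Plasmodium falciparum 3D7 (UniProt Q8IDJ8). Enzyme assay of the cytosolic lysyl-tRNA synthetase in 384-well plates, read by luminescence. Tested at 30 µM. Higher reads as stronger inhibition, judged from the few compounds that gave an IC50. About 69,000 compounds were tested under these conditions; 0.071% (about 49) showed 50% or more at least once.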
MtTrpRS: 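Enzyme assay of tryptophanyl-tRNA synthetase; the read-out is not stated. Target: Tryptophan-tRNA ligase, Mycobacterium tuberculosis (UniProt P9WFT3). Tested at 10 µM. Direction is not recorded; retested compounds ran higher, which suggests that high means inhibition. About 65,000 compounds were tested under these conditions; 0.098% (about 64) showed 50% or more at least once.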

The filed quantity is “Percent Effect” (%).
How 0% and 100% were set is not recorded. Most values in the screen are low, and negative values occur.
This is an unselected part of the compounds tested.

{"structure": "Cc1nc2ncccn2c1C(=O)N1CCc2[nH]cnc2C1", "TcHisRS": 6.358, "Pks13 thioesterase": -5.196, "CoaBC": -7.025, "Leishmania in macrophages": 3.812, "PfKRS1": 6.761, "MtTrpRS": -3.802}
{"structure": "CCN(CC)C(=O)NCCc1ccn(-c2ccccc2)n1", "TcHisRS": 5.413, "Pks13 thioesterase": -33.86, "CoaBC": -9.383, "Leishmania in macrophages": -1.739, "PfKRS1": -0.7905, "MtTrpRS": 11.41}
{"structure": "[H][C@@]12CCN(C(=O)Cc3cccs3)C[C@]1([H])OCCNC2=O", "Leishmania in macrophages": 12.13}
{"structure": "CNC(=O)CCc1cc(C)nc(C2CCCN2)n1", "stereo": "stereo not given", "TcHisRS": 3.784, "Pks13 thioesterase": -31.87, "CoaBC": -6.389, "Leishmania in macrophages": 5.431, "PfKRS1": 2.09, "MtTrpRS": -1.589}
{"structure": "CCn1nnc2c1C(COC)CN(Cc1ccsc1)C2", "stereo": "stereo not given", "TcHisRS": 0.8475, "Pks13 thioesterase": -18.15, "CoaBC": 5.286, "PfKRS1": 3.768, "MtTrpRS": -0.3353}
{"structure": "CCCS(=O)(=O)N1CCN(c2cc(-n3cnc(C)c3C)nc(C)n2)CC1", "TcHisRS": 6.695, "Pks13 thioesterase": -8.069, "CoaBC": -2.727, "Leishmania in macrophages": -4.166, "PfKRS1": -0.2845, "MtTrpRS": -1.74}
{"structure": "Cn1cnnc1CN1CCC2(CCC(=O)N(Cc3ccccn3)C2)CC1", "TcHisRS": 10.53, "Pks13 thioesterase": -36, "Leishmania in macrophages": 15.21, "PfKRS1": 1.342, "MtTrpRS": 0}
{"structure": "COCC1CC2(CCN(Cc3ccoc3)CC2)CN1C(C)C.O=C(O)C(F)(F)F.O=C(O)C(F)(F)F", "stereo": "stereo not given", "Leishmania in macrophages": 4.125}
{"structure": "COc1ccc(N2CCN(C(=O)C3CN(C)C(=O)N3)CC2(C)C)cc1", "stereo": "stereo not given", "TcHisRS": -1.064, "CoaBC": 2.254, "Leishmania in macrophages": 9.858, "PfKRS1": -3.018, "MtTrpRS": -2.527}
{"structure": "COC(=O)N1CCCCC1C(=O)N1CCN(c2cccnc2)CC1", "stereo": "stereo not given", "TcHisRS": 8.333, "Pks13 thioesterase": -27.97, "CoaBC": 1.597, "Leishmania in macrophages": -36.65, "PfKRS1": 0.1672, "MtTrpRS": 1.396}
{"structure": "Fc1ccccc1CN1C[C@H](OCC2CCOCC2)[C@H]2OCCC[C@H]21", "TcHisRS": 9.901, "Pks13 thioesterase": -27.31, "CoaBC": -3.1, "PfKRS1": 5.517, "MtTrpRS": 1.526}
{"structure": "COCC(=O)NCCc1nc2cc(-c3ccc(OC)cc3)ncn2n1", "TcHisRS": 2.26, "Pks13 thioesterase": -3.069, "CoaBC": -32.69, "Leishmania in macrophages": -35.72, "PfKRS1": 2.144, "MtTrpRS": 11.55}
{"structure": "CCN(CC)C1(Cc2cc(COC)on2)COC1", "TcHisRS": 6.468, "Pks13 thioesterase": -13.01, "CoaBC": 16.31, "Leishmania in macrophages": -9.486, "PfKRS1": 7.529, "MtTrpRS": -0.8391}
{"structure": "CCN(CC)C(=O)C1(NCc2nc(C)c(C)o2)CCCCC1", "TcHisRS": -0.5348, "Pks13 thioesterase": -24.94, "CoaBC": 3.913, "Leishmania in macrophages": 19.43, "PfKRS1": 3.018, "MtTrpRS": -2.794}
{"structure": "CCn1c(SCC(N)=O)nnc1C(C)NC(=O)c1ccc(Cl)cc1", "stereo": "stereo not given", "TcHisRS": -0.8696, "CoaBC": 0.4619, "Leishmania in macrophages": -29.95, "PfKRS1": -4.656, "MtTrpRS": -0.2591}
{"structure": "CC(C)c1ccc(/C=C/CC(=O)NC2CCN(C(N)=O)C2)cc1", "stereo": "stereo not given", "TcHisRS": 6.173, "Pks13 thioesterase": -2.108, "CoaBC": 3.067, "Leishmania in macrophages": 6.492, "PfKRS1": 1.894, "MtTrpRS": 3.043}
{"structure": "COc1ncccc1CN1C[C@@H]2C[C@@H](C(=O)NCC3CC3)N(C)[C@@H]2C1", "TcHisRS": 5.288, "Pks13 thioesterase": -14.18, "CoaBC": -0.2353, "PfKRS1": 6.625, "MtTrpRS": -2.819}
{"structure": "O=C(N1CCOCC1)N1C[C@H]2CC[C@@H]1CN(C1Cc3ccccc3C1)C2", "TcHisRS": 9.302, "Pks13 thioesterase": 17, "CoaBC": -6.009, "PfKRS1": 7.108, "MtTrpRS": 17.68}
{"structure": "Cn1cccc(NC(=O)N2CCC(COCc3ccccc3)C2)c1=O", "stereo": "stereo not given", "TcHisRS": 24.14, "Pks13 thioesterase": -6.286, "CoaBC": 8.055, "Leishmania in macrophages": -0.1089, "PfKRS1": 15.98, "MtTrpRS": 16.29}
{"structure": "CCOc1cc(C(=O)N(C)C)ccc1NC(=O)C(C)c1ccsc1", "stereo": "stereo not given", "TcHisRS": -4.124, "Pks13 thioesterase": -20.44, "CoaBC": 4.89, "Leishmania in macrophages": -107, "PfKRS1": -2.627, "MtTrpRS": -0.7048}
{"structure": "COC(=O)c1cc(C(=O)N2CCOCC2(C)C)n(-c2ccccc2)n1", "TcHisRS": 1.141, "Pks13 thioesterase": -10.91, "CoaBC": 2.394, "Leishmania in macrophages": 9.92, "PfKRS1": 7.846, "MtTrpRS": 0.1572}
{"structure": "COc1cc2cc3c(nc2cc1OC)OCCN(Cc1ccco1)C3", "TcHisRS": 2.632, "Pks13 thioesterase": 14.76, "CoaBC": 2.564, "Leishmania in macrophages": -12.99, "PfKRS1": -0.9001, "MtTrpRS": 2.732}

Some entries from above, unchanged:

{"structure": "COC(=O)c1cc(C(=O)N2CCOCC2(C)C)n(-c2ccccc2)n1", "TcHisRS": 1.141, "Pks13 thioesterase": -10.91, "CoaBC": 2.394, "Leishmania in macrophages": 9.92, "PfKRS1": 7.846, "MtTrpRS": 0.1572}
{"structure": "Fc1ccccc1CN1C[C@H](OCC2CCOCC2)[C@H]2OCCC[C@H]21", "TcHisRS": 9.901, "Pks13 thioesterase": -27.31, "CoaBC": -3.1, "PfKRS1": 5.517, "MtTrpRS": 1.526}